Paper PMC7804152, “Structural basis for the multi-activity factor Rad5 in replication stress tolerance”

Legend:
Assay in all cases: fluorescence polarization
[1] = target: T1, His-KlRad5 L325A (Kluyveromyces lactis) (UniProt Q6CJM4); conditions: FP: 20 mM Tris pH 7.5, 50 mM (dsDNA, KlHIRAN) or 70 mM (ssDNA) NaCl, 2 mM MgCl2, 1 nM DNA, room temp, recombinant protein, residues 163-1114, protein details: N-terminal His6, label: 5'-FAM
T1 sequence (looked up): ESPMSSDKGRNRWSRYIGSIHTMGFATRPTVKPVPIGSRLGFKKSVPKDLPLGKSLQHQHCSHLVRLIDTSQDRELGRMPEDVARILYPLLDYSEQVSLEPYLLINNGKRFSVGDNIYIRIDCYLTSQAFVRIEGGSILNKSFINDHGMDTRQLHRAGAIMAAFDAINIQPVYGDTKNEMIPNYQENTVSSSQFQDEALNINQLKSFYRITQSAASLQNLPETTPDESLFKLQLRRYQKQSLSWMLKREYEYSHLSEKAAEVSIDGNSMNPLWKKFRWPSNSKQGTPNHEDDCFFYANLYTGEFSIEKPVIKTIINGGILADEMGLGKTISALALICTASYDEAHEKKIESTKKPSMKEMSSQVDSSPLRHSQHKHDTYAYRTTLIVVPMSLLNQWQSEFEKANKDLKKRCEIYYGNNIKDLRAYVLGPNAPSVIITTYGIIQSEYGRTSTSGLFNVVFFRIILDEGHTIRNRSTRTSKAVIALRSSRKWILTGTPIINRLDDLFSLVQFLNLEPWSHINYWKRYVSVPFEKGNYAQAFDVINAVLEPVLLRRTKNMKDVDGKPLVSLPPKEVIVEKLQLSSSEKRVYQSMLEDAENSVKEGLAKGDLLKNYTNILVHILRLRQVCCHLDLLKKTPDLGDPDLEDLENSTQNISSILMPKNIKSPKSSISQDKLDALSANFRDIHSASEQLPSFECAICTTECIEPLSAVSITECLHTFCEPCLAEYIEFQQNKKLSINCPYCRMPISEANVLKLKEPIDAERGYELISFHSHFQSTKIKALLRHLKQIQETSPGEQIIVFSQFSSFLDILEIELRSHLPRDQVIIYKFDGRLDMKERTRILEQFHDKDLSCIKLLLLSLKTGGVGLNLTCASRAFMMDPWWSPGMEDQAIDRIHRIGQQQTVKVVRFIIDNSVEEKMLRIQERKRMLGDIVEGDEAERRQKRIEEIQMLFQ

[2] = target: T2, His-KlRad5 M323A (Kluyveromyces lactis) (UniProt Q6CJM4); conditions: FP: 20 mM Tris pH 7.5, 50 mM (dsDNA, KlHIRAN) or 70 mM (ssDNA) NaCl, 2 mM MgCl2, 1 nM DNA, room temp, recombinant protein, residues 163-1114, protein details: N-terminal His6, label: 5'-FAM
T2 sequence (looked up): T1 sequence (looked up) with M161A, A163L

[3] = target: T3, KlRad5 3RE R190E,R228E,R240E (Kluyveromyces lactis) (UniProt Q6CJM4); conditions: strongly inhibited, FP: 20 mM Tris pH 7.5, 50 mM (dsDNA, KlHIRAN) or 70 mM (ssDNA) NaCl, 2 mM MgCl2, 1 nM DNA, room temp, recombinant protein, residues 163-1114, label: 5'-FAM
T3 sequence (looked up): T1 sequence (looked up) with R28E, R66E, R78E, A163L

Measured: binding result

ACCAGTGCCAGTGAT (double strand) [D2a/D2b dsDNA]
binds more weakly: [1] | [2] | [3]; 50 mM NaCl

TTTTTTTCGTCTTCGGCAATTTTTT [S1 ssDNA, 5'-FAM]
binds more weakly: [1]; single-stranded DNA | [2]; single-stranded DNA | [3]; 70 mM NaCl, single-stranded DNA

Residue numbers refer to the chain shown, from its start. The comparison behind a weaker result is the experiment's own reference, which may not be listed here. Tags and fusion partners may be left off the protein sequences shown. For part of these data: For at least one entry, the source does not settle the construct or the ends of the probe. For part of these data: At least one verdict was read from the data and is not stated in words by the source.
